Data published in article PMC7397857.
Results are given in words; binding and its absence hold for the method and conditions named. In cells and extracts the contact can be indirect. Some results given as binding are weak or reduced against the parent protein; the word gives no strength. For some of these results: Where a sequence is shown, tags or fusion partners need not be part of it.

Protein sequences, listed by entry. Tags and fused reporters are not part of them.
UniProt P60468: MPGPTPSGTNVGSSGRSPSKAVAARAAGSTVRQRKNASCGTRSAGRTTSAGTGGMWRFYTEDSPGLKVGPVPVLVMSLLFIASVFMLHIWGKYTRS
UniProt A2RRP1: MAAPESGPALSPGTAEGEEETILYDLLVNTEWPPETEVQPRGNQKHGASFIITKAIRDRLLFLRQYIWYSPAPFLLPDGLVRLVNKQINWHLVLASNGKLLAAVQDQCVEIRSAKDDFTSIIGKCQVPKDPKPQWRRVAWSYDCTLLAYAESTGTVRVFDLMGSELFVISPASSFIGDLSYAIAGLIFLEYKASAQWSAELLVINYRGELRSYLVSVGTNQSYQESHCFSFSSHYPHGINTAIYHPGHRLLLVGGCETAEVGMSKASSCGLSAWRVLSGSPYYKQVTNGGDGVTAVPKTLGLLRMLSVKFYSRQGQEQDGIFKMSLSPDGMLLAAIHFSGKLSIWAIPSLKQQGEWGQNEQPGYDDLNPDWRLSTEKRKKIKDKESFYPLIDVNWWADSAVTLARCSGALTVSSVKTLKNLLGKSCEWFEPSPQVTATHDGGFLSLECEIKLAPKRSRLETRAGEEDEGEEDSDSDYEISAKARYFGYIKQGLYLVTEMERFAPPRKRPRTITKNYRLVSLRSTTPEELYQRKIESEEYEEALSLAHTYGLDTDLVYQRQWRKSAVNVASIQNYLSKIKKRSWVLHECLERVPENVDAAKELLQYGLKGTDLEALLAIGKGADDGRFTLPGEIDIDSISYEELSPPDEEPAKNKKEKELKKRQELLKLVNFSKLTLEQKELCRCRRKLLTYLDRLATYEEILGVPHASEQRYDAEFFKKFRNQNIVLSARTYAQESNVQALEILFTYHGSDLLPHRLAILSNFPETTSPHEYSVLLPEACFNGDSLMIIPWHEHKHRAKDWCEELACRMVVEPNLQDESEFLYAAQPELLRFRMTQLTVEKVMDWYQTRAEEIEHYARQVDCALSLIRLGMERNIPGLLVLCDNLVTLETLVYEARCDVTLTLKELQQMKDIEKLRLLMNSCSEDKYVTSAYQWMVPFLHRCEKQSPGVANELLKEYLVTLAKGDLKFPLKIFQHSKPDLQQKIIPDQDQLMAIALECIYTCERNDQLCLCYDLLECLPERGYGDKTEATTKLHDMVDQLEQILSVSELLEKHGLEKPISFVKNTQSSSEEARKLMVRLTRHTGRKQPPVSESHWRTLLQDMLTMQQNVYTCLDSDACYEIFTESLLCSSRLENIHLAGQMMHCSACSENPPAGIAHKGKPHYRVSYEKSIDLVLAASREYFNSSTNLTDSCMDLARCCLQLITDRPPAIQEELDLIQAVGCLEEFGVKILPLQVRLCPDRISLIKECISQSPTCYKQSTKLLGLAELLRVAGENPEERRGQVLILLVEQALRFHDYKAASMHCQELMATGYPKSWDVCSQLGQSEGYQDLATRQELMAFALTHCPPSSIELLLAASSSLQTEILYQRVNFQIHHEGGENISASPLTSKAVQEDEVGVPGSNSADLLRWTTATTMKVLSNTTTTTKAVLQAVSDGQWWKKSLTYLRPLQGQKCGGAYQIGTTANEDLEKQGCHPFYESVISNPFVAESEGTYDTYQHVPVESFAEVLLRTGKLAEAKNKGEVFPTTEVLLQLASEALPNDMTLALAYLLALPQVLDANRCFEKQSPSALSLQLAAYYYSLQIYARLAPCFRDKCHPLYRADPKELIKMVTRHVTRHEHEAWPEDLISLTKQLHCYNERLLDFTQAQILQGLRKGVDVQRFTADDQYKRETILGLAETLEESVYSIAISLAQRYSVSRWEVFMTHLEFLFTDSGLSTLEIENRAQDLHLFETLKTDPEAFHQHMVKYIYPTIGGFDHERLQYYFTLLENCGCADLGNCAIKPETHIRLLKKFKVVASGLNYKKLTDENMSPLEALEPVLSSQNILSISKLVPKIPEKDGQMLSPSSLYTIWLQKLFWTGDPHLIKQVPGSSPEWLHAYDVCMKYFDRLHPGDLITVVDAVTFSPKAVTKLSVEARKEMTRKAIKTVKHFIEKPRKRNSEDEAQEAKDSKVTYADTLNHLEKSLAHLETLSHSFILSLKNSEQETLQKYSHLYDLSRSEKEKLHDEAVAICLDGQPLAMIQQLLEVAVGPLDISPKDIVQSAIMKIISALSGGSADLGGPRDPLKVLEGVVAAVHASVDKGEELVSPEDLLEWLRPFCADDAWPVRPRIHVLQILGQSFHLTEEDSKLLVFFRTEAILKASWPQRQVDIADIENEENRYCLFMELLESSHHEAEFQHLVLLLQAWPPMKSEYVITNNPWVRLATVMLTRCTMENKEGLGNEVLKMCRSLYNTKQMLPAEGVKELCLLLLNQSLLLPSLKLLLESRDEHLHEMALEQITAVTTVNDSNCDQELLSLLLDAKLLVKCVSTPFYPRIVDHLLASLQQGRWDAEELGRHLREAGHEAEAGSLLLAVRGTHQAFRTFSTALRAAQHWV

How the values were obtained:
[1] = molecular target: SEC61B (human (endogenous in HeLa)) (UniProt P60468); test: proximity ligation; Duolink PLA on fixed, permeabilised cells with primary antibodies to the two proteins
[2] = molecular target: T7-NBAS (human) (UniProt A2RRP1); test: co-IP; tagged UPF1 (wild type or mutant) cotransfected with T7-NBAS, HeLa cells, in the presence or absence of RNases; source of UPF2 not stated

| Molecule | binding [1] | binding [2] |
| --- | --- | --- |
| endogenous NBAS tagged with an eGFP/3xFlag tag at its N terminus (from UniProt A2RRP1 1-2371) | binds |  |
| Flag-tagged UPF1 (protein, UniProt Q92900-2 1-1118) MSVEAYGPSSQTLTFLDTEEAELLGADTQGSEFEFTDFTLPSQTQTPPGGPGGPGGGGAGGPGGAGAGAAAGQLDAQVGPEGILQNGAVDDSVAKTSQLLAELNFEEDEEDTYYTKDLPIHACSYCGIHDPACVVYCNTSKKWFCNGRGNTSGSHIVNHLVRAKCKEVTLHKDGPLGETVLECYNCGCRNVFLLGFIPAKADSVVVLLCRQPCASQSSLKDINWDSSQWQPLIQDRCFLSWLVKIPSEQEQLRARQITAQQINKLEELWKENPSATLEDLEKPGVDEEPQHVLLRYEDAYQYQNIFGPLVKLEADYDKKLKESQTQDNITVRWDLGLNKKRIAYFTLPKTDSDMRLMQGDEICLRYKGDLAPLWKGIGHVIKVPDNYGDEIAIELRSSVGAPVEVTHNFQVDFVWKSTSFDRMQSALKTFAVDETSVSGYIYHKLLGHEVEDVIIKCQLPKRFTAQGLPDLNHSQVYAVKTVLQRPLSLIQGPPGTGKTVTSATIVYHLARQGNGPVLVCAPSNIAVDQLTEKIHQTGLKVVRLCAKSREAIDSPVSFLALHNQIRNMDSMPELQKLQQLKDETGELSSADEKRYRALKRTAERELLMNADVICCTCVGAGDPRLAKMQFRSILIDESTQATEPECMVPVVLGAKQLILVGDHCQLGPVVMCKKAAKAGLSQSLFERLVVLGIRPIRLQVQYRMHPALSAFPSNIFYEGSLQNGVTAADRVKKGFDFQWPQPDKPMFFYVTQGQEEIASSGTSYLNRTEAANVEKITTKLLKAGAKPDQIGIITPYEGQRSYLVQYMQFSGSLHTKLYQEVEIASVDAFQGREKDFIILSCVRANEHQGIGFLNDPRRLNVALTRARYGVIIVGNPKALSKQPLWNHLLNYYKEQKVLVEGPLNNLRESLMQFSKPRKLVNTINPGARFMTTAMYDAREAIIPGSVYDRSSQGRPSSMYFQTHDQIGMISAGPSHVAAMNIPIPFNLVMPPMPPPGYFGQANGPAAGRGTPKGKTGRGGRQKNRFGLPGPSQTNLPNSQASQDVASQPFSQGALTQGYISMSQPSQMSQPGLSQPELSQDSYLGDEFKSQIDVALSQDSTYQGERAYQHGGVTGLSQY |  | binds |
| UPF1 C126S (protein, UniProt Q92900-2 1-1118) MSVEAYGPSSQTLTFLDTEEAELLGADTQGSEFEFTDFTLPSQTQTPPGGPGGPGGGGAGGPGGAGAGAAAGQLDAQVGPEGILQNGAVDDSVAKTSQLLAELNFEEDEEDTYYTKDLPIHACSYSGIHDPACVVYCNTSKKWFCNGRGNTSGSHIVNHLVRAKCKEVTLHKDGPLGETVLECYNCGCRNVFLLGFIPAKADSVVVLLCRQPCASQSSLKDINWDSSQWQPLIQDRCFLSWLVKIPSEQEQLRARQITAQQINKLEELWKENPSATLEDLEKPGVDEEPQHVLLRYEDAYQYQNIFGPLVKLEADYDKKLKESQTQDNITVRWDLGLNKKRIAYFTLPKTDSDMRLMQGDEICLRYKGDLAPLWKGIGHVIKVPDNYGDEIAIELRSSVGAPVEVTHNFQVDFVWKSTSFDRMQSALKTFAVDETSVSGYIYHKLLGHEVEDVIIKCQLPKRFTAQGLPDLNHSQVYAVKTVLQRPLSLIQGPPGTGKTVTSATIVYHLARQGNGPVLVCAPSNIAVDQLTEKIHQTGLKVVRLCAKSREAIDSPVSFLALHNQIRNMDSMPELQKLQQLKDETGELSSADEKRYRALKRTAERELLMNADVICCTCVGAGDPRLAKMQFRSILIDESTQATEPECMVPVVLGAKQLILVGDHCQLGPVVMCKKAAKAGLSQSLFERLVVLGIRPIRLQVQYRMHPALSAFPSNIFYEGSLQNGVTAADRVKKGFDFQWPQPDKPMFFYVTQGQEEIASSGTSYLNRTEAANVEKITTKLLKAGAKPDQIGIITPYEGQRSYLVQYMQFSGSLHTKLYQEVEIASVDAFQGREKDFIILSCVRANEHQGIGFLNDPRRLNVALTRARYGVIIVGNPKALSKQPLWNHLLNYYKEQKVLVEGPLNNLRESLMQFSKPRKLVNTINPGARFMTTAMYDAREAIIPGSVYDRSSQGRPSSMYFQTHDQIGMISAGPSHVAAMNIPIPFNLVMPPMPPPGYFGQANGPAAGRGTPKGKTGRGGRQKNRFGLPGPSQTNLPNSQASQDVASQPFSQGALTQGYISMSQPSQMSQPGLSQPELSQDSYLGDEFKSQIDVALSQDSTYQGERAYQHGGVTGLSQY |  | binds |
| UPF1 K498A (protein, UniProt Q92900-2 1-1118) MSVEAYGPSSQTLTFLDTEEAELLGADTQGSEFEFTDFTLPSQTQTPPGGPGGPGGGGAGGPGGAGAGAAAGQLDAQVGPEGILQNGAVDDSVAKTSQLLAELNFEEDEEDTYYTKDLPIHACSYCGIHDPACVVYCNTSKKWFCNGRGNTSGSHIVNHLVRAKCKEVTLHKDGPLGETVLECYNCGCRNVFLLGFIPAKADSVVVLLCRQPCASQSSLKDINWDSSQWQPLIQDRCFLSWLVKIPSEQEQLRARQITAQQINKLEELWKENPSATLEDLEKPGVDEEPQHVLLRYEDAYQYQNIFGPLVKLEADYDKKLKESQTQDNITVRWDLGLNKKRIAYFTLPKTDSDMRLMQGDEICLRYKGDLAPLWKGIGHVIKVPDNYGDEIAIELRSSVGAPVEVTHNFQVDFVWKSTSFDRMQSALKTFAVDETSVSGYIYHKLLGHEVEDVIIKCQLPKRFTAQGLPDLNHSQVYAVKTVLQRPLSLIQGPPGTGATVTSATIVYHLARQGNGPVLVCAPSNIAVDQLTEKIHQTGLKVVRLCAKSREAIDSPVSFLALHNQIRNMDSMPELQKLQQLKDETGELSSADEKRYRALKRTAERELLMNADVICCTCVGAGDPRLAKMQFRSILIDESTQATEPECMVPVVLGAKQLILVGDHCQLGPVVMCKKAAKAGLSQSLFERLVVLGIRPIRLQVQYRMHPALSAFPSNIFYEGSLQNGVTAADRVKKGFDFQWPQPDKPMFFYVTQGQEEIASSGTSYLNRTEAANVEKITTKLLKAGAKPDQIGIITPYEGQRSYLVQYMQFSGSLHTKLYQEVEIASVDAFQGREKDFIILSCVRANEHQGIGFLNDPRRLNVALTRARYGVIIVGNPKALSKQPLWNHLLNYYKEQKVLVEGPLNNLRESLMQFSKPRKLVNTINPGARFMTTAMYDAREAIIPGSVYDRSSQGRPSSMYFQTHDQIGMISAGPSHVAAMNIPIPFNLVMPPMPPPGYFGQANGPAAGRGTPKGKTGRGGRQKNRFGLPGPSQTNLPNSQASQDVASQPFSQGALTQGYISMSQPSQMSQPGLSQPELSQDSYLGDEFKSQIDVALSQDSTYQGERAYQHGGVTGLSQY |  | no binding |
